Laboratory results published in patent US20150132852A1, “TISSUE CULTURING METHOD, CULTURING METHOD OF FERNS AND EXPLANT OBTAINED THEREFROM” (Chunghwa Picture Tubes, Ltd., priority 2013, published 2015).

System: chopped prothallium of Davallia mariesii
Assay: Calluses induction from chopped prothallium under various growth regulators
Type: cell-based
Conditions: 60 days
Method: The prothallium is chopped up into small pieces being 0.1 cm to 0.2 cm in width and cultured (suspending culture) in a medium, wherein the medium comprises ½ MS medium (Murashige and Skoog, 1962) having a composition as shown in TABLE 1. In other examples, the medium can also comprise Knop medium (Murashige and Skoog, 1962) or knudson medium (Knudson, 1946). Precisely, 0.1 g chopped prothallium are cultured in 10 ml ½ MS medium, which are shake cultured at 85 rpm for forty to eighty days, and preferably at 23° C. to 25° C. and 11 to 14 μmol^−2 s^−1 (Light:Dark=16:8) for sixty days, and are sub-cultured every thirty days. In the present experiment, a plurality of 50 ml flasks are prepared, each having 0.1 g chopped prothallium of Davallia mariesii (in 0.1 cm to 0.2 cm pieces) being cultured in a medium therein, wherein the medium comprises 10 ml ½ MS medium (including a small amount of sucrose, namely 20 g/l sucrose) and various growth regulators in various amounts as listed in TABLE 2. After 60 days of culturing, calluses obtained in each flask are collected and analyzed respectively, to record the size, weight and number of each callus.

[1] = single growth regulator 1 mg/L in 1/2 MS medium
[2] = single growth regulator 2 mg/L in 1/2 MS medium

SMILES | Appearances of calluses [1] | Appearances of calluses [2] | Appearances of calluses (single growth regulator 5 mg/L in 1/2 MS medium)
c1coc(CNc2ncnc3nc[nH]c23)c1 [Kinetin, 6-Furfurylamino-purine] | green | green | green
O=C(O)Cc1cccc2ccccc12 [NAA, 1-Naphthaleneacetic acid] | brown | brown | 
